No constants are given. Whether binding was seen depends on the method and setting. Some binding calls cover weakened binding; strength is not graded here.
Columns and labels:
[1] = target: truncated form of the IL-12Rβ2 extracellular region (domains 1-3) (human) (UniProt Q99665); assay: SPR (Biacore T100), IL-12 Fc captured on protein A chip, IL-12Rβ2 domains 1-3 as analyte
[2] = target: truncated form of the IL-12Rβ2 extracellular region (domains 1-3) (human) (UniProt Q99665); assay: SPR (Biacore T100, 20 C); IL-12 Fc captured on a protein A chip, IL-12Rbeta2 (domains 1-3) injected at 7.8-2000 nM
[3] = target: truncated form of the IL-12Rβ2 extracellular region (domains 1-3) (human) (UniProt Q99665); assay: SPR as in Example 3; immobilized IL-12 Fc, IL-12Rbeta2 injected at 0.7-500 nM

Protein sequences, listed by entry. Tags and fused reporters are not part of them. Lines headed by an entry give the natural chain unless they say otherwise; changes in a name come on top.
UniProt Q99665: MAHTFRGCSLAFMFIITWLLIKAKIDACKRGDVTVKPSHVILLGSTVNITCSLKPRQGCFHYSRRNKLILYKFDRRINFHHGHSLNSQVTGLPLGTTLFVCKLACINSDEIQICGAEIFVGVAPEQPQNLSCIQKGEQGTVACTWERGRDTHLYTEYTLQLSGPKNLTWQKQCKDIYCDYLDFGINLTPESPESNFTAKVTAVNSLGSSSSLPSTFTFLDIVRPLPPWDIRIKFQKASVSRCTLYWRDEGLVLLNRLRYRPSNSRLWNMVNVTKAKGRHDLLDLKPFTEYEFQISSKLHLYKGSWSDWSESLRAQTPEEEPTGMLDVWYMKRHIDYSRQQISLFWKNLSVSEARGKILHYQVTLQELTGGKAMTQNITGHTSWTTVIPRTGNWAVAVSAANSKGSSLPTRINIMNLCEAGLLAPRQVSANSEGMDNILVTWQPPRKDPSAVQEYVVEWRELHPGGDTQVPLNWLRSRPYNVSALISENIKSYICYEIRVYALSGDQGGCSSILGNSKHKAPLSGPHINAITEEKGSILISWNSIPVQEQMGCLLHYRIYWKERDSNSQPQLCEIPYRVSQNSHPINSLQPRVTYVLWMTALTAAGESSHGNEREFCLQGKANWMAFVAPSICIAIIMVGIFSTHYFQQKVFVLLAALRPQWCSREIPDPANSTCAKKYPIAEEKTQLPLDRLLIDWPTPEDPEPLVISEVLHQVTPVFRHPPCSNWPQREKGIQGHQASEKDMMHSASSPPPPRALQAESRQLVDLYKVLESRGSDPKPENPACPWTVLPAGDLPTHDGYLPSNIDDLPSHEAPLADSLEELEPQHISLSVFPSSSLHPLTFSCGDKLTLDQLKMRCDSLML
UniProt P29459: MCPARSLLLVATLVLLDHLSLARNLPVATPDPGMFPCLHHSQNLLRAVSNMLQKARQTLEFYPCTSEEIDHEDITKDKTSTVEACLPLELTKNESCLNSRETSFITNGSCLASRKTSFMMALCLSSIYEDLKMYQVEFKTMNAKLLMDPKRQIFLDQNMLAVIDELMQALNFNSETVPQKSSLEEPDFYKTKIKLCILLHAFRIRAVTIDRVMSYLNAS

binding [1] | binding [2] | binding [3] | Substance
binds | binds | – | IL-12 Fc single mutant D126A (Fc-C-terminal fusion format of Example 1) (from UniProt P29459 23-219; P29460 23-328) (Fc fusion)
binds | binds | – | IL-12 Fc single mutant K168A (Fc-C-terminal fusion format of Example 1) (from UniProt P29459 23-219; P29460 23-328) (Fc fusion)
binds | binds | – | IL-12 Fc single mutant P127A (Fc-C-terminal fusion format of Example 1) (from UniProt P29459 23-219; P29460 23-328) (Fc fusion)
– | binds | binds | wild-type IL-12 heterodimeric Fc fusion protein (IgG1Fc(knob)-IL12p35 / IgG1Fc(hole)-IL12p40) (from UniProt P29459 23-219; P29460 23-328)
